The text below walks through data of the supplement of paper PMC6411743.

Protein sequences, listed by entry. Tags and fused reporters are not part of them. Lines headed by an entry give the natural chain unless they say otherwise; changes in a name come on top.
UniProt Q7Z6J9: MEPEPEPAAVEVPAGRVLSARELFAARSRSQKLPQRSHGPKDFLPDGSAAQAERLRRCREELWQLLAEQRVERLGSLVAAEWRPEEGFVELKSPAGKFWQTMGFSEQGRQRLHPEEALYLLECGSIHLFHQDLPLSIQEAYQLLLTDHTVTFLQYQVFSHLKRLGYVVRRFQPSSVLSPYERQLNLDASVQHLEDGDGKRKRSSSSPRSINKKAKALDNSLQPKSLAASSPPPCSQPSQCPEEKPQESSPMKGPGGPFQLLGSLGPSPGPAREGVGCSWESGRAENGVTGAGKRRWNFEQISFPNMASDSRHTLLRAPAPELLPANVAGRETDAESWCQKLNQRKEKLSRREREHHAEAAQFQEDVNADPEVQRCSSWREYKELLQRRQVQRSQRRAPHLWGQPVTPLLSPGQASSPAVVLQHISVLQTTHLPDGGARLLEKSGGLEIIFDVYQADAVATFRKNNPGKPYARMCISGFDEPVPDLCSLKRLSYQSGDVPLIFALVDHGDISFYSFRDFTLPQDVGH
UniProt Q6VY07, whole entry, looked up: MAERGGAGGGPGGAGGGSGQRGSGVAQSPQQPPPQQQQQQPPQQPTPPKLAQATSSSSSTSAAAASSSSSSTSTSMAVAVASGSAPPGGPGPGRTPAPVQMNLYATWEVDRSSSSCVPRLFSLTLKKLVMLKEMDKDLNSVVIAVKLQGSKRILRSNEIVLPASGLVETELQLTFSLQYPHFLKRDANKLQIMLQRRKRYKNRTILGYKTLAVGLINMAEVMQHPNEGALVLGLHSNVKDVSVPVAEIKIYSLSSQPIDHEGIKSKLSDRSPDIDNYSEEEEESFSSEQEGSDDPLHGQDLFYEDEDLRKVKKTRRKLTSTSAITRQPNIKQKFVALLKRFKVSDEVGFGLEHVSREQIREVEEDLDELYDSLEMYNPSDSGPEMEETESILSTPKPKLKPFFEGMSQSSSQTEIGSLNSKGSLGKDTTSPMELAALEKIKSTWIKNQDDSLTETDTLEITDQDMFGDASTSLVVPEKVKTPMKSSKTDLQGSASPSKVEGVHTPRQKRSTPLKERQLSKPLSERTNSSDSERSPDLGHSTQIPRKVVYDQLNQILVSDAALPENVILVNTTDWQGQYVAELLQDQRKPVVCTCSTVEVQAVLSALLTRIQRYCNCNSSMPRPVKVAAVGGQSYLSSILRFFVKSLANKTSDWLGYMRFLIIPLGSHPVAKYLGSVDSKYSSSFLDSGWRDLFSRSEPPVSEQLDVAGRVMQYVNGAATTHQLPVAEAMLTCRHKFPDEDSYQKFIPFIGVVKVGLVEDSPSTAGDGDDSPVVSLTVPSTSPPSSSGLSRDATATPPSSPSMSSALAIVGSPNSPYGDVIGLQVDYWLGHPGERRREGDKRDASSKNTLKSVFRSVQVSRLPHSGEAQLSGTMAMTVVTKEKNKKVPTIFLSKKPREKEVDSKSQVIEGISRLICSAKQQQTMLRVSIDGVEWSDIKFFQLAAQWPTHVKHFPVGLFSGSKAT
UniProt Q86U70: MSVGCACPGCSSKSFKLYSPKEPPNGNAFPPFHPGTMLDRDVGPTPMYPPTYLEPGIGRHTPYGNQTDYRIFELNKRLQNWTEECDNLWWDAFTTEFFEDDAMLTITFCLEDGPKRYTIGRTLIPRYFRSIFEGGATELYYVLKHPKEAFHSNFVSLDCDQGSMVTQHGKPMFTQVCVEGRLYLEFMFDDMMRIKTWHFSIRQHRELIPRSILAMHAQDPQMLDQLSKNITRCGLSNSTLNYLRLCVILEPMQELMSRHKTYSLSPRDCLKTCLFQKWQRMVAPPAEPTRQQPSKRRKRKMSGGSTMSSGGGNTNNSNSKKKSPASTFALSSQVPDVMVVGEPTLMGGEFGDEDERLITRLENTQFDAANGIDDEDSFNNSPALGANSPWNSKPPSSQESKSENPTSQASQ
UniProt Q86W56: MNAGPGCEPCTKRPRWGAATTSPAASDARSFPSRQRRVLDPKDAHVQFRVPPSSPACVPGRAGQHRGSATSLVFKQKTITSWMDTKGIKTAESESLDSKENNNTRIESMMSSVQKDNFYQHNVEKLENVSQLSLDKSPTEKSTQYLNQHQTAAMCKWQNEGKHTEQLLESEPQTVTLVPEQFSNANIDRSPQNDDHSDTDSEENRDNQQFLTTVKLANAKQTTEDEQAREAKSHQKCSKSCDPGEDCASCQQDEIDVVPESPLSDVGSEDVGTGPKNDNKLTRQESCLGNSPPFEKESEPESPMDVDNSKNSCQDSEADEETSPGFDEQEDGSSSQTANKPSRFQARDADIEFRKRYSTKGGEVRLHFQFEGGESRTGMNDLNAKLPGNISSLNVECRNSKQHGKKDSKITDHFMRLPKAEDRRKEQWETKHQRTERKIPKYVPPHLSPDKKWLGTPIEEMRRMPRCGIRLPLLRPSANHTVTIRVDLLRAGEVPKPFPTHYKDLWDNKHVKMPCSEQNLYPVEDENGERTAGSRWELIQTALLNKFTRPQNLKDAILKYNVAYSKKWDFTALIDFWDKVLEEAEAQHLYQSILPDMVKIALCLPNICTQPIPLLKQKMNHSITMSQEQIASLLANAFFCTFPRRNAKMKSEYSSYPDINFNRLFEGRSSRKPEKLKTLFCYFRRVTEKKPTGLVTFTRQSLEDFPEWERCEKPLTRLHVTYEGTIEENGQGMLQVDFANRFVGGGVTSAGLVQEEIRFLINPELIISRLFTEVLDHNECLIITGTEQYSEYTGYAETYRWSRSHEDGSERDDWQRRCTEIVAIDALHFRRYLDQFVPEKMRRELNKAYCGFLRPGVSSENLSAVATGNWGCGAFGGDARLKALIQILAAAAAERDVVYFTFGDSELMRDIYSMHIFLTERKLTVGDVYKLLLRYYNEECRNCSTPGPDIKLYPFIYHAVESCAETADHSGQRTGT

Compound in the assay: Nc1nc2c(ncn2[C@@H]2O[C@H](COP(=O)(O)OP(=O)(O)OP(=O)(O)O)[C@@H](O)[C@H]2O)c(=O)[nH]1 [guanosine triphosphate]
Kind of assay: NP40-soluble protein abundance relative to vehicle (solubility fold change) (ratio); higher = more soluble protein in presence of GTP. As for the experimental part:
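Solubility proteome profiling in Jurkat crude lysate. Lysate was treated with Mg-GTP (0.1-10 mM) for 10 min at room temperature and 3 min at 37 °C, then solubilised with 0.8% NP40 and benzonase, followed by ultracentrifugation. Proteins were quantified by TMT10 LC-MS/MS; the value is the NP40-soluble abundance relative to the NP40-processed vehicle, from 3 independent experiments.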

± gives the standard deviation of the averaged measurements. The list shows a part of the results.

TSEN54 (UniProt Q7Z6J9): the NP40-soluble protein abundance reads like this: (concentration: 0.1mM) 1 ± 0.049; (concentration: 0.5mM) 1 ± 0.031; (concentration: 1mM) 0.977 ± 0.063; (concentration: 2mM) 0.995 ± 0.074; (concentration: 4mM) 0.992 ± 0.063; (concentration: 6mM) 0.97 ± 0.067. For the same target, the NP40-soluble protein abundance reads like this: (concentration: 8mM) 1.06 ± 0.032; (concentration: 10mM) 1.03 ± 0.047.

Take UniProt Q6VY07 and related entries: the NP40-soluble protein abundance (concentration: 0.1mM) was determined as 0.987 ± 0.013; the NP40-soluble protein abundance (concentration: 0.5mM) is 1.03 ± 0.022; the NP40-soluble protein abundance (concentration: 1mM) is 0.953 ± 0.03; the NP40-soluble protein abundance (concentration: 2mM) came out at 0.962 ± 0.019; the NP40-soluble protein abundance (concentration: 4mM) was 0.961 ± 0.03; the NP40-soluble protein abundance (concentration: 6mM) stood at 0.948 ± 0.0098. The NP40-soluble protein abundance stood at 0.944 ± 0.018 (concentration: 8mM) and 0.941 ± 0.03 (concentration: 10mM).

Take UniProt Q86V81: the NP40-soluble protein abundance runs as follows: (concentration: 0.1mM) 0.939 ± 0.019; (concentration: 0.5mM) 0.943 ± 0.079; (concentration: 1mM) 1.12 ± 0.036; (concentration: 2mM) 1.25 ± 0.097; (concentration: 4mM) 1.5 ± 0.047; (concentration: 6mM) 1.73 ± 0.054. Further, the NP40-soluble protein abundance runs as follows: (concentration: 8mM) 1.95 ± 0.1; (concentration: 10mM) 2.52 ± 0.13.

Regarding LDB1 (UniProt Q86U70), the NP40-soluble protein abundance runs as follows: (concentration: 0.1mM) 1.066 ± 0.0088; (concentration: 0.5mM) 1.04 ± 0.05; (concentration: 1mM) 1 ± 0.056; (concentration: 2mM) 0.989 ± 0.024; (concentration: 4mM) 0.938 ± 0.043; (concentration: 6mM) 0.951 ± 0.021. The NP40-soluble protein abundance is 0.968 ± 0.047 (concentration: 8mM) and 0.931 ± 0.036 (concentration: 10mM).

Consider UniProt Q86W56 and related entries, for which the NP40-soluble protein abundance is, setting by setting: (concentration: 0.1mM) 1.06 ± 0.09; (concentration: 0.5mM) 1.07 ± 0.11; (concentration: 1mM) 1.01 ± 0.081; (concentration: 2mM) 1.02 ± 0.094; (concentration: 4mM) 0.994 ± 0.071; (concentration: 6mM) 1 ± 0.085. The NP40-soluble protein abundance (concentration: 8mM) worked out at 1.02 ± 0.085 and the NP40-soluble protein abundance (concentration: 10mM) turned out to be 0.998 ± 0.073.
